± gives the standard deviation of the averaged measurements. This is a selection; strong and weak results do not stand in their true shares. Most values lie at the level of the controls, where differences are scatter.
Compound: Nc1ncnc2c1ncn2[C@@H]1O[C@H](COP(=O)(O)OP(=O)(O)OP(=O)(O)O)[C@@H](O)[C@H]1O [adenosine triphosphate]
Assay: NP40-soluble protein abundance relative to vehicle (solubility fold change) (ratio); higher = more soluble protein in presence of ATP
Method in brief: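 Data come from three independent experiments in which Dounce-homogenised Jurkat crude lysate was treated at eight concentrations from 0.1 to 10 mM. Treatment ran 10 min at room temperature and then 3 min at 37 °C, after which 0.8% NP40 and benzonase were added for 60 min at 4 °C before ultracentrifugation. The supernatant underwent TMT labelling and LC-MS/MS, and vsn-normalised intensities were expressed as fold change against the detergent-processed vehicle in each replicate.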

By UniProt entry, the sequences of proteins in these tests, tags left out. Where a name states a change or a piece, a line headed by the entry shows the natural chain unless it says otherwise.
UniProt Q6ZU80: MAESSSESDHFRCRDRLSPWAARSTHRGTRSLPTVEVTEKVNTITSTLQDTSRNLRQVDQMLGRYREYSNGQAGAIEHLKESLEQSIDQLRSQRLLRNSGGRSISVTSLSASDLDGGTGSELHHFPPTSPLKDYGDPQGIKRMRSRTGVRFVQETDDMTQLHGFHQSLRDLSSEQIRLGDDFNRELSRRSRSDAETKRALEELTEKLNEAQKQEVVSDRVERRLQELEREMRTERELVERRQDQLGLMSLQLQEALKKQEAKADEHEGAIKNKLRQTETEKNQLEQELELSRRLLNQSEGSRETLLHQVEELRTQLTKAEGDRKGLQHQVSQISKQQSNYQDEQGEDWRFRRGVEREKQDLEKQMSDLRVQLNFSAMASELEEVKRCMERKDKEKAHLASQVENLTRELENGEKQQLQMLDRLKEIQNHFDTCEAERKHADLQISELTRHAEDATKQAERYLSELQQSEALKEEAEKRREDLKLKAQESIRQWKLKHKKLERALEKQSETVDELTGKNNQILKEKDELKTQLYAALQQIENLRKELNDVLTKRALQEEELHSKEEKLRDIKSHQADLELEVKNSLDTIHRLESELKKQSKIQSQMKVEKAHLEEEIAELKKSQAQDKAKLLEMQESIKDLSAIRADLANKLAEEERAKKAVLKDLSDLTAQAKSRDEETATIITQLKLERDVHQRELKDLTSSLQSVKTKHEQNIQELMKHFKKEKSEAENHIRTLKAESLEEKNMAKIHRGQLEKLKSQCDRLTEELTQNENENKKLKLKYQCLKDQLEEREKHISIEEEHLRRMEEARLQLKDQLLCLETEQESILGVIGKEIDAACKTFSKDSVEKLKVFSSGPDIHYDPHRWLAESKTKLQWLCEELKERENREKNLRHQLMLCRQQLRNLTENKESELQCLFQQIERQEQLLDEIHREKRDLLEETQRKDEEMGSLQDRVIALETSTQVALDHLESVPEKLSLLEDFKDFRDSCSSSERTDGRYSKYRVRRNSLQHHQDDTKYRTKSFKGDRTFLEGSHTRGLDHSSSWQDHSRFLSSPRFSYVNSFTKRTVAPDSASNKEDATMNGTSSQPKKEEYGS
UniProt Q8IUX7: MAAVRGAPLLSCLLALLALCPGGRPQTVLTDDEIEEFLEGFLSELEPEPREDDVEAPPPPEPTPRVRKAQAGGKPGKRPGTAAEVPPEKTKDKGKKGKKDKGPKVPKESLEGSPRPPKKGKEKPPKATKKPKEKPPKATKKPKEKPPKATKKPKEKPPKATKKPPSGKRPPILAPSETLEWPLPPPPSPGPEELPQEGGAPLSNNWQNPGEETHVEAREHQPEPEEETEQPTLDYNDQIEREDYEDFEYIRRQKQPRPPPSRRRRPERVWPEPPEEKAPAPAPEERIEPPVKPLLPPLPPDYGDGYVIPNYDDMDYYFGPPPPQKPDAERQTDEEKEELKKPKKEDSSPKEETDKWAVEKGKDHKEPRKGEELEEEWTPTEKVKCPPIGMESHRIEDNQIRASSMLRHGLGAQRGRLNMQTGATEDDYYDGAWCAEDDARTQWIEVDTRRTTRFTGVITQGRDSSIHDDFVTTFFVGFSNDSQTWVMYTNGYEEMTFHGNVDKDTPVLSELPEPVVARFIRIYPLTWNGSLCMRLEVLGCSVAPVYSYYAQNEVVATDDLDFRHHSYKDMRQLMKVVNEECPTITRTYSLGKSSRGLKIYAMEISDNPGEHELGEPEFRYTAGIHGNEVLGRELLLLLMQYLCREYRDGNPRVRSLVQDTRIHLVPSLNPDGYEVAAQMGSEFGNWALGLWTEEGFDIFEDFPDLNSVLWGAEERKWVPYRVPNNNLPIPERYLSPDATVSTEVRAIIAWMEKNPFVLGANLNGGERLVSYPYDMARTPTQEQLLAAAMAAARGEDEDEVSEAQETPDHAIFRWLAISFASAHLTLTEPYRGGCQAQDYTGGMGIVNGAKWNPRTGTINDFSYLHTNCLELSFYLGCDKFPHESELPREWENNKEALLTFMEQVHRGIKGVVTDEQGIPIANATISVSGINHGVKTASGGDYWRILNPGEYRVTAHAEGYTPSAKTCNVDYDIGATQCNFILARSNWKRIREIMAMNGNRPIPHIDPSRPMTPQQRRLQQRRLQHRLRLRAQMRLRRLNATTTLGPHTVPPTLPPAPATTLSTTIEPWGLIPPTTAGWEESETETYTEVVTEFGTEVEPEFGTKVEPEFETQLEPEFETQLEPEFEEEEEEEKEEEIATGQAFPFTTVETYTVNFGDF
UniProt Q6UWP7: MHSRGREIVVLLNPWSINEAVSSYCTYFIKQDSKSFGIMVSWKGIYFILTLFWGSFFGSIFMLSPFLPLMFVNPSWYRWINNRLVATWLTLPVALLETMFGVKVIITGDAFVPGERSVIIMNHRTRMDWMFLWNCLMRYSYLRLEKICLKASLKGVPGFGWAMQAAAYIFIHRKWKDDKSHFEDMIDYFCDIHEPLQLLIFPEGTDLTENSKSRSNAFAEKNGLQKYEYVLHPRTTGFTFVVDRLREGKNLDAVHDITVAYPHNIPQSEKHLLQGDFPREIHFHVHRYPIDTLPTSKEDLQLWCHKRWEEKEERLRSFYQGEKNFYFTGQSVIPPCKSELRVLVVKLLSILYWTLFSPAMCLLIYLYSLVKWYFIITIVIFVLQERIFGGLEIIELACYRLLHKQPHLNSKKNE
UniProt Q8IV50: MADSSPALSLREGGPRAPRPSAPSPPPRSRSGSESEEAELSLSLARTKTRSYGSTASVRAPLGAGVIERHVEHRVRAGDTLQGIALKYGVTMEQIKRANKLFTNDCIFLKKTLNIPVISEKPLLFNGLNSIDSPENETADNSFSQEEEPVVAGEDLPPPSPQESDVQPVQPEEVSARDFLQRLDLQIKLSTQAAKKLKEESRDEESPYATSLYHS
UniProt Q86WA6: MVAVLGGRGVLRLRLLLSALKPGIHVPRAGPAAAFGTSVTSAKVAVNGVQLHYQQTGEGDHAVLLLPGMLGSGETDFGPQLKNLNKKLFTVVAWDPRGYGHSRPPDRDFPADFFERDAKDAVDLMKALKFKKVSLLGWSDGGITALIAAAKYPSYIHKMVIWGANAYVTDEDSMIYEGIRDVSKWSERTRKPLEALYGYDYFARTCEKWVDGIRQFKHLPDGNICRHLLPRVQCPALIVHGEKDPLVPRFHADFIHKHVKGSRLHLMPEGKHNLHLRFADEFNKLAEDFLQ
UniProt Q6UWI4: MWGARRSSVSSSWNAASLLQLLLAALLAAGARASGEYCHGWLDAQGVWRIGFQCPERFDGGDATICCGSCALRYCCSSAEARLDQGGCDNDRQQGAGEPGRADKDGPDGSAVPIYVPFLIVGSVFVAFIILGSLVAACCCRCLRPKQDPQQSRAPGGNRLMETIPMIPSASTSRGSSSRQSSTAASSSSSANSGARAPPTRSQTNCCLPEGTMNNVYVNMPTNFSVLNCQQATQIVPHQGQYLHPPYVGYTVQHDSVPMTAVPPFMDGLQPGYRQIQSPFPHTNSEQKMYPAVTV
UniProt Q6W2J9: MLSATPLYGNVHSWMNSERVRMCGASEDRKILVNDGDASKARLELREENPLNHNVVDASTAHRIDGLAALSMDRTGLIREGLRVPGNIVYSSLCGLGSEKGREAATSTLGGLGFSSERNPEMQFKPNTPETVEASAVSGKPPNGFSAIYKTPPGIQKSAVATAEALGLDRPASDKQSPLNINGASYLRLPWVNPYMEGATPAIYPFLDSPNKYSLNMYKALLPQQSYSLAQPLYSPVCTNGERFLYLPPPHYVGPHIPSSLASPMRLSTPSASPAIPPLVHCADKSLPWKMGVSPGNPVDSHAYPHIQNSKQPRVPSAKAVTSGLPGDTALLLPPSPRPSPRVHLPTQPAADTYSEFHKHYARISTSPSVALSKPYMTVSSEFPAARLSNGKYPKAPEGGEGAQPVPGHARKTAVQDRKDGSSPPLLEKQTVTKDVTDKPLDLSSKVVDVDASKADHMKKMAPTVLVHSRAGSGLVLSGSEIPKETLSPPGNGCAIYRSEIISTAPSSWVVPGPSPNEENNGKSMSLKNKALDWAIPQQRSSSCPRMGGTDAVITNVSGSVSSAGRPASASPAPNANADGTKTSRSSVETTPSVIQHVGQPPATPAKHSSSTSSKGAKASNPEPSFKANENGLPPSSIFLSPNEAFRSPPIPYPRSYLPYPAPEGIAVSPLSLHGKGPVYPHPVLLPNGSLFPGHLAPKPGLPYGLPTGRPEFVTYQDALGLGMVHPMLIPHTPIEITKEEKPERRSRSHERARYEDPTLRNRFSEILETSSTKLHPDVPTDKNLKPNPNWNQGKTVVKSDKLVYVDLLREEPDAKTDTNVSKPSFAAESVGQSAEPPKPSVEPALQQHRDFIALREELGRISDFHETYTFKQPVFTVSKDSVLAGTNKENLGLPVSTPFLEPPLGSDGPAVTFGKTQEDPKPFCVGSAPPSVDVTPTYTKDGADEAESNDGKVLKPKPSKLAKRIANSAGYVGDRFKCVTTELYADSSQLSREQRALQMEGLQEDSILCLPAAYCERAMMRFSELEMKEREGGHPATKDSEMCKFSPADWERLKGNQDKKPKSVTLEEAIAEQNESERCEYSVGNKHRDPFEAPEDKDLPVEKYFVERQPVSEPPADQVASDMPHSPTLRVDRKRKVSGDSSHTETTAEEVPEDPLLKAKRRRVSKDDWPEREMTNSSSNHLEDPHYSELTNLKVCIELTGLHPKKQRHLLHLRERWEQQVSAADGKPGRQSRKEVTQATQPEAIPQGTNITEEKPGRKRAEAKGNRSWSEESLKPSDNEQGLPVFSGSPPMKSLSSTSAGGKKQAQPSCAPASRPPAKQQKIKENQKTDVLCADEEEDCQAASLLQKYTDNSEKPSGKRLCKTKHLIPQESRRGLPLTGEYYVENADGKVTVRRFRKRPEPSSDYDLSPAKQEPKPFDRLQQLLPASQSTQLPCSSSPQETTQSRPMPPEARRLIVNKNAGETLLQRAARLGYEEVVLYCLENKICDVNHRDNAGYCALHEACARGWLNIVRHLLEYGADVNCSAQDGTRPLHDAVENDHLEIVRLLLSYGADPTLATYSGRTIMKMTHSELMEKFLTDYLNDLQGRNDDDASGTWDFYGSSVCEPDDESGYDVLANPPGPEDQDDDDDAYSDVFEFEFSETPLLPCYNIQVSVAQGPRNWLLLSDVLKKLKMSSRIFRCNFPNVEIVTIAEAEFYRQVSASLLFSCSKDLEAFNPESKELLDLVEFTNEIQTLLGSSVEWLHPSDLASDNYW
UniProt Q86VN1: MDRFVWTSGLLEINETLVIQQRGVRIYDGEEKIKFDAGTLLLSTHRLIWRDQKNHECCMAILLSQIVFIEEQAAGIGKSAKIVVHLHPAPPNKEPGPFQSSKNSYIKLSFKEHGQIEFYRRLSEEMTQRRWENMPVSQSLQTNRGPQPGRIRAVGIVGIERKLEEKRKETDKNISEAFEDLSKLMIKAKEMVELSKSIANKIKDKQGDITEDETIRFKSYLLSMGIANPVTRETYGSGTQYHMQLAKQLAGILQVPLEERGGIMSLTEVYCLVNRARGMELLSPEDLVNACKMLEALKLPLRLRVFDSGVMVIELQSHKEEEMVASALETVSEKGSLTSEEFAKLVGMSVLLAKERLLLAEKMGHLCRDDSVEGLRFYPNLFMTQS
UniProt Q7L592: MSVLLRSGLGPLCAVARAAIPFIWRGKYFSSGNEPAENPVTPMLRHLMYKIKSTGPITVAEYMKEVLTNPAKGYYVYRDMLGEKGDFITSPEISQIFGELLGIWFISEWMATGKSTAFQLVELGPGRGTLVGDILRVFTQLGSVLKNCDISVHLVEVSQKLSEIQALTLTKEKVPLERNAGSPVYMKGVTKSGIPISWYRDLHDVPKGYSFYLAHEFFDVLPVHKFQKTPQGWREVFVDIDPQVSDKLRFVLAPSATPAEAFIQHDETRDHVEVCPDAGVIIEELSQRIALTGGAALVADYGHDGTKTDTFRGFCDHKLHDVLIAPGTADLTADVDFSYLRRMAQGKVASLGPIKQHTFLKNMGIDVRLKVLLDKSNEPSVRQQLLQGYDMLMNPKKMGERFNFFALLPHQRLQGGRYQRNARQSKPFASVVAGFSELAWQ
UniProt Q6PI47: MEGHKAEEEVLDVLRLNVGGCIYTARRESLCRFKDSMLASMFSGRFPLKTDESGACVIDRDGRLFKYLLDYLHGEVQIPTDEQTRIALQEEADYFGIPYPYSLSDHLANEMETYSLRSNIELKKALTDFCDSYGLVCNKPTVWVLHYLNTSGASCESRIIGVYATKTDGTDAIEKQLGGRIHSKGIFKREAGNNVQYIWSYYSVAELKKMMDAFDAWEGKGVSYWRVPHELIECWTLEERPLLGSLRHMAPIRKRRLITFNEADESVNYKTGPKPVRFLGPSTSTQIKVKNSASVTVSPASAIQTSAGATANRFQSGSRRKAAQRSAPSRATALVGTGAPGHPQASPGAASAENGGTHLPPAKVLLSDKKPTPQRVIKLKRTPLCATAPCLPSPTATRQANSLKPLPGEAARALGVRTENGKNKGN

Target	NP40-soluble protein abundance (concentration: 0.1mM)	NP40-soluble protein abundance (concentration: 0.5mM)
UniProt Q8IUZ5 and related entries	1.08 ± 0.16	0.978 ± 0.12
METTL3 (UniProt Q86U44)	1.03 ± 0.059	1.04 ± 0.049
UniProt Q7Z7C8 and related entries	0.985 ± 0.081	1.01 ± 0.034
ATAD2 (UniProt Q6PL18)	1.07 ± 0.041	1.24 ± 0.065
UniProt Q86WV1 and related entries	0.99 ± 0.015	0.992 ± 0.038
PAXIP1 (UniProt Q6ZW49)	0.962 ± 0.071	0.99 ± 0.077
UniProt Q6ZNW5	0.96 ± 0.048	1.02 ± 0.074
SLC30A9 (UniProt Q6PML9)	0.983 ± 0.012	1 ± 0.033
UniProt Q8IV53 and related entries	0.956 ± 0.028	0.979 ± 0.036
UniProt Q86V48 and related entries	0.948 ± 0.023	0.963 ± 0.036
UniProt Q7Z7L7	1.09 ± 0.028	1.13 ± 0.026
UniProt Q86W34 and related entries	0.998 ± 0.034	1.02 ± 0.049
DARS2 (UniProt Q6PI48)	1.06 ± 0.041	1.02 ± 0.062
APBB1IP (UniProt Q7Z5R6)	1.07 ± 0.092	0.995 ± 0.038
UniProt Q6ZU80 and related entries	1.08 ± 0.074	1.08 ± 0.062
UniProt Q6R327 and related entries	1.06 ± 0.017	1.19 ± 0.078
UniProt Q7Z3E2	1 ± 0.063	1.01 ± 0.072
UniProt Q6PIF6	1.04 ± 0.067	1.03 ± 0.011
UniProt Q7Z5J4 and related entries	1.01 ± 0.016	1.04 ± 0.0093
UniProt Q8IUX7	0.983 ± 0.056	0.84 ± 0.31

Target	NP40-soluble protein abundance (concentration: 0.1mM)	NP40-soluble protein abundance (concentration: 0.5mM)
UniProt Q6UWP7 and related entries	1.04 ± 0.053	1.03 ± 0.074
UniProt Q7Z2E3 and related entries	0.976 ± 0.051	1.01 ± 0.096
UniProt Q6ZS86 and related entries	1.03 ± 0.083	1.07 ± 0.091
UniProt Q7Z392	1.02 ± 0.13	1.05 ± 0.073
HS2ST1 (UniProt Q7LGA3)	1.02 ± 0.061	1.12 ± 0.022
UniProt Q70UQ0 and related entries	0.973 ± 0.14	0.915 ± 0.12
LYSMD2 (UniProt Q8IV50)	0.952 ± 0.012	0.946 ± 0.12
KCTD9 (UniProt Q7L273)	0.983 ± 0.041	0.98 ± 0.028
SPATS2 (UniProt Q86XZ4)	1.03 ± 0.07	1.11 ± 0.065
UniProt Q7L1Q6	0.962 ± 0.029	0.994 ± 0.023
UniProt Q86WA6 and related entries	1.01 ± 0.034	0.987 ± 0.06
APOOL (UniProt Q6UXV4)	0.986 ± 0.012	0.972 ± 0.012
UniProt Q6UWI4	0.936 ± 0.12	0.865 ± 0.11
TMED4 (UniProt Q7Z7H5)	0.996 ± 0.051	1.01 ± 0.04
UniProt Q86XP3 and related entries	1.04 ± 0.026	1.08 ± 0.047
UniProt Q6ZRS2 and related entries	1.06 ± 0.053	1.18 ± 0.15
UniProt Q6UXB8 and related entries	0.996 ± 0.026	0.983 ± 0.024
UniProt Q86VP1-2|B8ZZD4	0.998 ± 0.044	1.01 ± 0.032
UniProt Q6Y1H2	1.06 ± 0.038	1.02 ± 0.065
UniProt Q7Z406 and related entries	0.966 ± 0.2	1.1 ± 0.044

Reformatted in CSV form: part of the list above
Target,NP40-soluble protein abundance (concentration: 0.1mM),NP40-soluble protein abundance (concentration: 0.5mM)
UniProt Q7Z7C8 and related entries,0.985 ± 0.081,1.01 ± 0.034
ATAD2 (UniProt Q6PL18),1.07 ± 0.041,1.24 ± 0.065
UniProt Q86WV1 and related entries,0.99 ± 0.015,0.992 ± 0.038
PAXIP1 (UniProt Q6ZW49),0.962 ± 0.071,0.99 ± 0.077
UniProt Q6ZNW5,0.96 ± 0.048,1.02 ± 0.074
SLC30A9 (UniProt Q6PML9),0.983 ± 0.012,1 ± 0.033
UniProt Q8IV53 and related entries,0.956 ± 0.028,0.979 ± 0.036
UniProt Q86V48 and related entries,0.948 ± 0.023,0.963 ± 0.036
UniProt Q7Z7L7,1.09 ± 0.028,1.13 ± 0.026
UniProt Q86W34 and related entries,0.998 ± 0.034,1.02 ± 0.049
DARS2 (UniProt Q6PI48),1.06 ± 0.041,1.02 ± 0.062
APBB1IP (UniProt Q7Z5R6),1.07 ± 0.092,0.995 ± 0.038
UniProt Q6ZU80 and related entries,1.08 ± 0.074,1.08 ± 0.062

The list continues.

Target	NP40-soluble protein abundance (concentration: 0.1mM)	NP40-soluble protein abundance (concentration: 0.5mM)
UniProt Q86SX3 and related entries	0.992 ± 0.17	1 ± 0.19
UniProt Q7L3B6 and related entries	0.965 ± 0.068	0.957 ± 0.049
UniProt Q7KZN9 and related entries	1.01 ± 0.16	1.03 ± 0.18
RINL (UniProt Q6ZS11)	1.01 ± 0.019	0.993 ± 0.026
ARHGAP30 (UniProt Q7Z6I6)	0.977 ± 0.03	1 ± 0.051
UniProt Q6W2J9 and related entries	0.962 ± 0.15	1.01 ± 0.055
UniProt Q86VN1 and related entries	1.03 ± 0.078	1.01 ± 0.061
ERI1 (UniProt Q8IV48)	1.03 ± 0.051	1.09 ± 0.07
UniProt Q7Z3C6 and related entries	1.04 ± 0.035	0.989 ± 0.047
UniProt Q7Z3K6 and related entries	0.985 ± 0.077	1.02 ± 0.029
UniProt Q7Z460-4	0.989 ± 0.015	1.06 ± 0.029
C16orf87 (UniProt Q6PH81)	0.966 ± 0.094	0.969 ± 0.048
UniProt Q7L592	1.05 ± 0.042	1.02 ± 0.067
EEPD1 (UniProt Q7L9B9)	1.24 ± 0.32	1.06 ± 0.1
IRF2BP1 (UniProt Q8IU81)	0.992 ± 0.024	0.981 ± 0.04
C5orf24 (UniProt Q7Z6I8)	0.955 ± 0.017	0.927 ± 0.037
UniProt Q6PI47	0.935 ± 0.041	0.76 ± 0.15
UniProt Q86TV6 and related entries	0.935 ± 0.092	0.909 ± 0.13
UBE2Q1 (UniProt Q7Z7E8)	1.01 ± 0.048	1.01 ± 0.024
UniProt Q6ZN55 and related entries	1.04 ± 0.11	1.03 ± 0.22
